Results are given in words; binding and its absence hold for the method and conditions named. Binding can be weak; no strength is given.

Sequences of proteins named here, by UniProt entry; tags and fusion partners are left off. A change or cut given only in a name is not applied to a line headed by its entry.
UniProt P24001: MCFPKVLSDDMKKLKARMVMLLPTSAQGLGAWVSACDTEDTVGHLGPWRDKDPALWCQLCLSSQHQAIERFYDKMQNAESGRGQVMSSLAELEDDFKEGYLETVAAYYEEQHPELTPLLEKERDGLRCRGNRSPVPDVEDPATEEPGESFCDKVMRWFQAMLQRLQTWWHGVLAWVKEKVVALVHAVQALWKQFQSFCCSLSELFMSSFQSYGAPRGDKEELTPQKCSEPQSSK

This note sets out measurements from patent US20190112367A1.

The target of the experiment is IL-32 (isotype not stated, analyte of the SPR experiment) (UniProt P24001). The experiment in a line: SPR, IL-32 injected at 100 to 1.23 nM (FIG. 8). On the technique in general: In SPR one partner is held on a chip, and binding of the other changes the refractive index at the surface.

B1: anti-IL-32 antibody 2C2 (IgG3, lambda) (antibody, V domains shown)
VH: QLRVQESGPGLLKPAETLSLTCSVSSGSVSNSRYYWAWIRQSPGKGLEWIGSMYYRGRSYYNPSLKSRLTISIDTSKNQFSLKLTSLTAADTAVYYCAAAVYHDLDYWGQGTLVTVSS
VL: QSVLTQPPSVSAAPGQKVTISCSGSGSSIGNNYVSWYQQLPGAAPKLLIYDNTKRPSGIPDRFSGSKSGTSATLAITGLQPGDAADYYCGTWDSSFSVFWVFGGGTKLTVLS
As for B1, the binding entry is listed as “binds”.
